Measurements reported in US11685741B2, “Fluorescent probes” (University of Massachusetts, priority 2017, dated 2023).
Entries after “also recorded” stand apart in the source; their conditions may differ.

Test system: Bovine aortic endothelial cells (BAEC)
Test: Confocal imaging of Fe2+ in BAEC cells
Type: cell-based
Conditions: MitoTracker and LysoTracker
Protocol: Bovine aortic endothelial cells BAEC cells, at an approximately density of 1.3 million/ml in complete EBM medium, were incubated with 100 μM ferrous ammonium sulfate (FAS, Fe (NH4)2(SO4)2 from a 10 mM stock solution) for overnight at 37° C. in a humid atmosphere of 5% CO2 and then the cells were washed with fresh EBM medium to remove excess Fe^2+. Then cells were incubated with Rh101D (10 μM, from 500 μM stock solution in DMF) at 37° C. for 30 min and then cells were washed with EBM media and then imaged. In addition, some cells were treated firstly with 100 μM Fe^2+ overnight and then the cells were washed with fresh EBM medium. For chelation experiments, Fe^2+-loaded cells or untreated cells were incubated with 1 mM 2,2′-bipyridyl (Bpy) at 37° C. for 30 min, then sensor was added followed by washing with the media, and then imaging was done. Controls were imaged without incubation with Fe^2+ or 2,2′-bipyridyl. HCT-116, a human colon adenocarcinoma cell line were used for concentration determination of Fe^2+ with the help of the ratiometric sensor Rh101D. HCT-116 were maintained in McCoy's 5A medium supplemented with 10% fetal bouvine serum and 5% antibiotic antimycotic in a 5% CO2 atmosphere at 37° C. Cultures were divided 1:2 every 48 h to an approximate cell density of 1.21 million cells/ml and used for experiments after 24 h. […]

CCN(CC)c1ccc2c(c1)OC1=C(CCC/C1=C\C=C1\N(C)c3ccccc3C1(C)C)C21c2ccccc2C(=O)N1/N=C\C=C\c1ccc(N(C)C)cc1 (centres unmarked) [NIRh-Fret, (E)-6′-(diethylamino)-2-(((1Z,2E)-3-(4-(dimethylamino)phenyl)allylidene)amino)-4′-(2-((E)-1,3,3-trimethylindolin-2-ylidene)ethylidene)-1′,2′,3′,4′-tetrahydrospiro[isoindoline-1,9′-xanthen]-3-one]
subcellular location of exchangeable Fe^2+ pools detected: mitochondria and endosomes/lysosomes

CN(C)c1ccc(/C=C/C=N/N2C(=O)c3ccccc3C23c2cc4c5c(c2Oc2c3cc3c6c2CCCN6CCC3)CCCN5CCC4)cc1 [Rh101D]
subcellular location of exchangeable Fe^2+ pools detected: mitochondria and lysosomes; also recorded: mitochondria and endosomes/lysosomes, not in the cytosol
